Experimental data from paper PMC4951308.
These are yes or no findings as the source states them, for the method shown. For some assays here: Binding seen in cells or lysates may run through a third protein. Some binding calls cover weakened binding; strength is not graded here. Each block holds one substance with its values, some of them ahead of it.

Sequences of proteins named here, by UniProt entry; tags and fusion partners are left off. A change or cut given only in a name is not applied to a line headed by its entry. Residues count along the entry.
UniProt P10909: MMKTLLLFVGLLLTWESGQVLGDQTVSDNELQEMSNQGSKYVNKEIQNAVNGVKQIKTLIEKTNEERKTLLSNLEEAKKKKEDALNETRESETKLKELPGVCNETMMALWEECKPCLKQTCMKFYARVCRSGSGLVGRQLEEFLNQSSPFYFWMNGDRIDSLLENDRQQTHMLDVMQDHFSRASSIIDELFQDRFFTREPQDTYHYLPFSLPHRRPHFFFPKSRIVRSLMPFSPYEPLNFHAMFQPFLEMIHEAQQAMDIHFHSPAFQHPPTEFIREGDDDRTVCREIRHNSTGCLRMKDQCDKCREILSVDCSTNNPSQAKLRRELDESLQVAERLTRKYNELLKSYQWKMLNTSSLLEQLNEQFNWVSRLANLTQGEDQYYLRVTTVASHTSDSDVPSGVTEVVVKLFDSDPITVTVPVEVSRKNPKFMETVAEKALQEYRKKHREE
Clusterin 1-227, bait in pGilda: residues 1-227 of P10909
UniProt O00303: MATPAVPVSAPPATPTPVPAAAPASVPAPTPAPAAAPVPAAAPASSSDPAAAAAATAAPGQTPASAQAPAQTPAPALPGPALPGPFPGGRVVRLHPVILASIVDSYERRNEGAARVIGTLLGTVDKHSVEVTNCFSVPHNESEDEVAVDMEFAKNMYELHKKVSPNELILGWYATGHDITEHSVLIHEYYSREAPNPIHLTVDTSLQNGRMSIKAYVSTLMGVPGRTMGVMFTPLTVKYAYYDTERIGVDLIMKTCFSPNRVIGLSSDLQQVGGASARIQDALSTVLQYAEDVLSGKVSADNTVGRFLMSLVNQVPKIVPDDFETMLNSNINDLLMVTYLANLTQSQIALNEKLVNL

Columns and labels:
[1] = target: Clusterin 1-227, bait in pGilda (human) (UniProt P10909); assay: two-hybrid; Matchmaker LexA system, EGY48 yeast; CLU constructs in pGilda (bait), eIF3f constructs in pB42AD (prey); growth on plates lacking leucine and β-galactosidase on X-gal plates, 30°C
[2] = target: Clusterin, full (1-449), bait in pGilda (human) (UniProt P10909); assay: as above
[3] = target: FLAG-eIF3f, full length, expressed from pcDNA3-flag in HEK293a cells (human) (UniProt O00303); assay: co-IP; HEK293a cells transfected with expression vectors; NP-40 lysis buffer (20mM Tris-HCl pH8.0, 150mM NaCl, 1% NP-40); 1.5 mg lysate with CLU polyclonal or flag monoclonal antibody overnight at 4°C, protein A/G agarose; Western blot
[4] = target: Clusterin expressed from pcDNA3.1-CLU in HEK293a cells (human) (UniProt P10909); assay: as above

binding [1]: binds
binding [2]: binds
Substance: eIF3f, full (1-358), prey in pB42AD (from UniProt O00303 1-357)

binding [3]: binds
Substance: Clusterin expressed from pcDNA3.1-CLU in HEK293a cells (from UniProt P10909 23-449)

binding [2]: binds
Substance: eIF3f 1-170, prey in pB42AD (from UniProt O00303 1-170) (domain or fragment)

binding [4]: binds
Substance: FLAG-eIF3f, full length, expressed from pcDNA3-flag in HEK293a cells (from UniProt O00303 1-357)
